Where a name gives a salt, the structure may show the parent alone. This is one part of the list. Hit calls seldom repeat between salt and free forms of one compound.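 In K562 cells expressing nanoluciferase-fused kinases, luminescence was recorded at 4 h intervals between 2 and 18 h, normalized as percent of control with DMSO at 100% and a positive control at 0%. A significant (2 sigma) signal drop marks a time point as decreased. The authors' rule for a hit is not shown and takes in more than the number of time points.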
What was measured:
Assay in all cases: kinase-Nluc reporter destabilization hit call (1 = scored as downregulated) (binary); higher = compound decreases kinase abundance
Conditions in all cases: K562, 2-18 h
MAPK1 = MAPK1 (UniProt P28482)
MAPK4 = MAPK4 (UniProt P31152)
MAPKAPK2 = MAPKAPK2 (UniProt P49137)
MKNK1 = MKNK1 (UniProt Q9BUB5)
NTRK2 = NTRK2 (UniProt Q16620)
NTRK3 = NTRK3 (UniProt Q16288)
PAK4 = PAK4 (UniProt O96013)
PBK = PBK (UniProt Q96KB5)
PDGFRB = PDGFRB (UniProt P09619)
PDK1 = PDK1 (UniProt Q15118)

Chains of the proteins cited; added tags and fusions are not shown. Lines headed by an entry give the natural chain unless they say otherwise; changes in a name come on top.
UniProt P28482, whole entry: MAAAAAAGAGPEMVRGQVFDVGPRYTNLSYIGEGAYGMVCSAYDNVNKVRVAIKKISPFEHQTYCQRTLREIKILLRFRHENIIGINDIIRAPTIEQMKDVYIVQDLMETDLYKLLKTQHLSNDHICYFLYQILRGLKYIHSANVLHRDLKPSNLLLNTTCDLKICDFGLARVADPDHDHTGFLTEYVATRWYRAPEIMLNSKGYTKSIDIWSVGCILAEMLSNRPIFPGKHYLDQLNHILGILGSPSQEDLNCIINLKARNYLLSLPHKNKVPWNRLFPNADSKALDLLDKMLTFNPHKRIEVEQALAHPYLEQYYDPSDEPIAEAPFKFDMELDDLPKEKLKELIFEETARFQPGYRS
UniProt P31152, whole entry: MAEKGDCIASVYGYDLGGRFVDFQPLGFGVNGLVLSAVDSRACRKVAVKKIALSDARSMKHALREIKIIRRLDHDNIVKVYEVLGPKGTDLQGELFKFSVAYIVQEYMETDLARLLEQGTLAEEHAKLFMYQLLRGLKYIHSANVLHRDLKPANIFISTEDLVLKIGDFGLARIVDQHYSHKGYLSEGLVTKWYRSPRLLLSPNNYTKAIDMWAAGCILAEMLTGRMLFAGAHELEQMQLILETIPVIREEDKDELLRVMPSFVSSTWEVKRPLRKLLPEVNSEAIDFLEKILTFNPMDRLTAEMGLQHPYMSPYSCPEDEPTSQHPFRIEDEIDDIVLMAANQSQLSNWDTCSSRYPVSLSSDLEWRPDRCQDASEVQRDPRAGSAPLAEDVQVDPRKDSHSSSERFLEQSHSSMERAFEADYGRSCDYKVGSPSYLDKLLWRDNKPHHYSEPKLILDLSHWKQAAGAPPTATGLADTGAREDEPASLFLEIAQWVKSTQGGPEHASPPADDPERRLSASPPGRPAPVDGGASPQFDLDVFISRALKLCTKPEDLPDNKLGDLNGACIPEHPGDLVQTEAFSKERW
UniProt P49137, whole entry, looked up: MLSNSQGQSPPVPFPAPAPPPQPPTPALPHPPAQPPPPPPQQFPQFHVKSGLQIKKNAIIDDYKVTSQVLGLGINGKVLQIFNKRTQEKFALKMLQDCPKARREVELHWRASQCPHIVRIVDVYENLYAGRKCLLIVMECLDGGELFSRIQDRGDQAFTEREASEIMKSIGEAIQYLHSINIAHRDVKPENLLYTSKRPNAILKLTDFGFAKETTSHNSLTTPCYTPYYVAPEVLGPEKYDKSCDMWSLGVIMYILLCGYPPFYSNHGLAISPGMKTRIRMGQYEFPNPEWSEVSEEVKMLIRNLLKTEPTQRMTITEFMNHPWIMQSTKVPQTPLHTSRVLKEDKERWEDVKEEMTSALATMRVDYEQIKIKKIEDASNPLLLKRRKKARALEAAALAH
UniProt Q9BUB5: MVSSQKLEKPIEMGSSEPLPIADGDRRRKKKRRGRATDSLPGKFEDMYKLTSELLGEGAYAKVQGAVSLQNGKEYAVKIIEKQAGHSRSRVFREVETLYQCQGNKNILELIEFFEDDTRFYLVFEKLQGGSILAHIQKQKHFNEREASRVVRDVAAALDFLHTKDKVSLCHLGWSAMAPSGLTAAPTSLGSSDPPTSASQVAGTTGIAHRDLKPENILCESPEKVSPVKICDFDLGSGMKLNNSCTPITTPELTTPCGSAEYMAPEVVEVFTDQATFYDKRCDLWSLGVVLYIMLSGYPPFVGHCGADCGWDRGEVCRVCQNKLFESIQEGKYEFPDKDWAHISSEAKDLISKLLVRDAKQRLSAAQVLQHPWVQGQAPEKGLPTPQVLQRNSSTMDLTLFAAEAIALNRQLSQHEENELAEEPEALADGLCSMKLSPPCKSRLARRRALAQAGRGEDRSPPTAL
UniProt Q16620, whole entry, looked up: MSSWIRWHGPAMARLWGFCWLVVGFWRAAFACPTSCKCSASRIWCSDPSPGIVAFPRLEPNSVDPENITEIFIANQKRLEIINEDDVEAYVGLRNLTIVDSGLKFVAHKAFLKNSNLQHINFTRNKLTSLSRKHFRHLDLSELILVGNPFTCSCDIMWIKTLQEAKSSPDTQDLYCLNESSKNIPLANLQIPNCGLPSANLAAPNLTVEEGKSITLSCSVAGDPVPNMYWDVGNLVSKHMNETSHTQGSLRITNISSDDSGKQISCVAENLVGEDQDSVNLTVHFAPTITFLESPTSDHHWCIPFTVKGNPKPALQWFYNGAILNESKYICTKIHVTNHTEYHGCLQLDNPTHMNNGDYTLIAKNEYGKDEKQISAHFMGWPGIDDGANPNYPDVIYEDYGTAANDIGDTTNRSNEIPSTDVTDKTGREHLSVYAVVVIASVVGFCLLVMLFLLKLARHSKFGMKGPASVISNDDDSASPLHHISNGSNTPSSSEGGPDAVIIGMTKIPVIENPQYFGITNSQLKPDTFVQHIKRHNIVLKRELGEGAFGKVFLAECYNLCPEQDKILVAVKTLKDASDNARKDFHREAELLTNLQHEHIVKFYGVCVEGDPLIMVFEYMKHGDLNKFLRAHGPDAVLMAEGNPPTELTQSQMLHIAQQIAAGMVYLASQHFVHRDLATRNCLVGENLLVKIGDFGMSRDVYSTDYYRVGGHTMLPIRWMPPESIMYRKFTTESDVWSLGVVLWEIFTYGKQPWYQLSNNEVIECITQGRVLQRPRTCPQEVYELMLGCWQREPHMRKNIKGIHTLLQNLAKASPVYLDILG
UniProt Q16288, whole entry, looked up: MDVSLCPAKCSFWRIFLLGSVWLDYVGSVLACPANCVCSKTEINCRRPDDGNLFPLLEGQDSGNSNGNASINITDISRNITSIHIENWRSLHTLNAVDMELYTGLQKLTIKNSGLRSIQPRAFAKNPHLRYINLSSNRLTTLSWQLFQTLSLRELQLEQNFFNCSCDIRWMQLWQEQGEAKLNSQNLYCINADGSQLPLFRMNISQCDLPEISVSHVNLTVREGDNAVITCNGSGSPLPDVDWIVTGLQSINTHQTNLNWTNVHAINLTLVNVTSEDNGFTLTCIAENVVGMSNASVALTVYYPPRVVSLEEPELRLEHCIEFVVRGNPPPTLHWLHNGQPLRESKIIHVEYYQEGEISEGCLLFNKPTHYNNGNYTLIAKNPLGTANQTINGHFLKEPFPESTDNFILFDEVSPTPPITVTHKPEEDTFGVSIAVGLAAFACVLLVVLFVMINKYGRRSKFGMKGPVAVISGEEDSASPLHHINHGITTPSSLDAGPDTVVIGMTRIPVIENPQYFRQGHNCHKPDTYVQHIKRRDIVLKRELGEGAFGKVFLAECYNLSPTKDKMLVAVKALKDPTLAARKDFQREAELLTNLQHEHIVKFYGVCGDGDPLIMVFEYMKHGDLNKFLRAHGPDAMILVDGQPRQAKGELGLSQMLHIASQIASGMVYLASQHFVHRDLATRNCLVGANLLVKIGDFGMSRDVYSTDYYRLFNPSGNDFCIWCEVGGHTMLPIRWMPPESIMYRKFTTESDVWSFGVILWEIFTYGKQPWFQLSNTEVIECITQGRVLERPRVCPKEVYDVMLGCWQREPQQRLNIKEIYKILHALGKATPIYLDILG
UniProt O96013: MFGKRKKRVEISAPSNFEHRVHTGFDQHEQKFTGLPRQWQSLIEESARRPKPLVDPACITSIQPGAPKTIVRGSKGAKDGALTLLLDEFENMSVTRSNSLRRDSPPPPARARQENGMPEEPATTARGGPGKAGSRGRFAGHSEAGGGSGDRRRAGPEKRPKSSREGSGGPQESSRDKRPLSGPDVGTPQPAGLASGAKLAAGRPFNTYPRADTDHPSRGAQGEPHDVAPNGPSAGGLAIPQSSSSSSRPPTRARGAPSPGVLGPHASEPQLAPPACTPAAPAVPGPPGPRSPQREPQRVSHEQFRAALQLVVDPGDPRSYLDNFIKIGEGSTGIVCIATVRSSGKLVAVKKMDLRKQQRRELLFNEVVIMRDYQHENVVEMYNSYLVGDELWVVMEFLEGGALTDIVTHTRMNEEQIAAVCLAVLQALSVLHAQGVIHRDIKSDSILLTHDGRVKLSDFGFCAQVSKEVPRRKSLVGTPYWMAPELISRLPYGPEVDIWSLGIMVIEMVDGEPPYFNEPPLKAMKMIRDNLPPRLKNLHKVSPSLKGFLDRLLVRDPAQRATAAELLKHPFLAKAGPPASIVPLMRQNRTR
UniProt Q96KB5: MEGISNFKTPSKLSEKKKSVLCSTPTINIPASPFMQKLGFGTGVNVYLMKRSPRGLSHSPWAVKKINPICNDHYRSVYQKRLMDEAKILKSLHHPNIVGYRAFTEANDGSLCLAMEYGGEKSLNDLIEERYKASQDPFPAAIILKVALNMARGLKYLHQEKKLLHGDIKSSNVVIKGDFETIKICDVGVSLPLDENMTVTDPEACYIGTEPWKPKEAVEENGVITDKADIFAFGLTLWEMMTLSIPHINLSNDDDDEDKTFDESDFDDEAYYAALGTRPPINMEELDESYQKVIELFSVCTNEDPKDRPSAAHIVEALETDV
UniProt P09619, whole entry: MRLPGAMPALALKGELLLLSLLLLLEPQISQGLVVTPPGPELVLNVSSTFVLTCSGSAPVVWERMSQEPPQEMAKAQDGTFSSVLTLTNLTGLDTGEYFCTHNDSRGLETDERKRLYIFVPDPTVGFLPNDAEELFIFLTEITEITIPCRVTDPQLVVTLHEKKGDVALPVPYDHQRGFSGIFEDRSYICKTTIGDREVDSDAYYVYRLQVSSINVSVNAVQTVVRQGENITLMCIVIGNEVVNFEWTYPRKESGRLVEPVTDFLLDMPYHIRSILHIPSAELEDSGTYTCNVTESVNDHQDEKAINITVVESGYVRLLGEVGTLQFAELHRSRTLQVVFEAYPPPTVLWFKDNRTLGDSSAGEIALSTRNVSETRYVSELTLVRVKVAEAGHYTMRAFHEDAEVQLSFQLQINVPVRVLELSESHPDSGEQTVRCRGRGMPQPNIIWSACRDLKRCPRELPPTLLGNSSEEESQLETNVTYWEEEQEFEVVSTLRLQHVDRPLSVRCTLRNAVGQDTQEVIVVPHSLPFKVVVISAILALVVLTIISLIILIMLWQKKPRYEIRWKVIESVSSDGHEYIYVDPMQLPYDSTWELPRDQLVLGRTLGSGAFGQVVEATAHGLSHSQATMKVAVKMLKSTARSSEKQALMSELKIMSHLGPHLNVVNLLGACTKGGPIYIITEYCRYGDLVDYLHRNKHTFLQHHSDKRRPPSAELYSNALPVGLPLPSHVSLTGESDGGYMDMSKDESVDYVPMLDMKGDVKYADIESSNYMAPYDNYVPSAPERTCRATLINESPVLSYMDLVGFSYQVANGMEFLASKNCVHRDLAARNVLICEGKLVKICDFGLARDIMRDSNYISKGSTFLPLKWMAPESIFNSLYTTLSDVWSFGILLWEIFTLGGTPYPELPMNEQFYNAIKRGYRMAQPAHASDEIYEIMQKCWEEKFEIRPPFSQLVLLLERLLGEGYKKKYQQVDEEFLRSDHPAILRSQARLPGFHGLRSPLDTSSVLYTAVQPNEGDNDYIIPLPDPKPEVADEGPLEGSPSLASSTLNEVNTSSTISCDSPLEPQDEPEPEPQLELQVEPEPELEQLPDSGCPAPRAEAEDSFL
UniProt Q15118, whole entry, looked up: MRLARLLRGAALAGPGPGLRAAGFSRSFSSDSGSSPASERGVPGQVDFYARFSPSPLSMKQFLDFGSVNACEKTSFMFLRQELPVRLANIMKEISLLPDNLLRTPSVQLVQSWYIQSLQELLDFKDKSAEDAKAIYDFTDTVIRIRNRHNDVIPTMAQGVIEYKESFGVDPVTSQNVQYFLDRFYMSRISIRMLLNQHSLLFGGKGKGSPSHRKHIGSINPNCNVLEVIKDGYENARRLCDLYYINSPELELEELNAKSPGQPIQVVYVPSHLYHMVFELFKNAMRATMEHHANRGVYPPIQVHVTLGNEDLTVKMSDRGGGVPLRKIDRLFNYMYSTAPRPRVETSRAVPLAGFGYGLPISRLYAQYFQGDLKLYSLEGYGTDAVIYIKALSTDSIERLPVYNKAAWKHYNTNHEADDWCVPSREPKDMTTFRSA

Structure (SMILES) | kinase-Nluc reporter destabilization hit call (MAPK1; 2.5 µM) | kinase-Nluc reporter destabilization hit call (MAPK4; 2.5 µM) | kinase-Nluc reporter destabilization hit call (MAPKAPK2; 2.5 µM) | kinase-Nluc reporter destabilization hit call (MKNK1; 2.5 µM) | kinase-Nluc reporter destabilization hit call (NTRK2; 2.5 µM) | kinase-Nluc reporter destabilization hit call (NTRK3; 2.5 µM) | kinase-Nluc reporter destabilization hit call (PAK4; 2.5 µM) | kinase-Nluc reporter destabilization hit call (PBK; 2.5 µM) | kinase-Nluc reporter destabilization hit call (PDGFRB; 2.5 µM) | kinase-Nluc reporter destabilization hit call (PDK1; 2.5 µM) | kinase-Nluc reporter destabilization hit call (MAPK1; 10 µM) | kinase-Nluc reporter destabilization hit call (MAPK4; 10 µM) | kinase-Nluc reporter destabilization hit call (MAPKAPK2; 10 µM) | kinase-Nluc reporter destabilization hit call (MKNK1; 10 µM) | kinase-Nluc reporter destabilization hit call (NTRK2; 10 µM) | kinase-Nluc reporter destabilization hit call (NTRK3; 10 µM) | kinase-Nluc reporter destabilization hit call (PAK4; 10 µM) | kinase-Nluc reporter destabilization hit call (PBK; 10 µM) | kinase-Nluc reporter destabilization hit call (PDGFRB; 10 µM) | kinase-Nluc reporter destabilization hit call (PDK1; 10 µM)
Cc1nc(Nc2ncc(C(=O)Nc3c(C)cccc3Cl)s2)cc(N2CCN(CCO)CC2)n1 [Dasatinib] | inactive: 0 | inactive: 0 | inactive: 0 | inactive: 0 | inactive: 0 | inactive: 0 | inactive: 0 | inactive: 0 | inactive: 0 | inactive: 0 |  |  |  |  |  |  |  |  |  | 
COc1ccc(-c2cc3nccn3c(Nc3ncccc3C(N)=O)n2)cc1OC [BAY 61-3606 (dihydrochloride)] | inactive: 0 | inactive: 0 | inactive: 0 | inactive: 0 | inactive: 0 | inactive: 0 | inactive: 0 | inactive: 0 | inactive: 0 | inactive: 0 |  |  |  |  |  |  |  |  |  | 
Nc1ncccc1-c1nc2ccc(-c3ccccc3)nc2n1-c1ccc(C2(N)CCC2)cc1 [Miransertib] |  |  |  |  |  |  |  |  |  |  | inactive: 0 | inactive: 0 | inactive: 0 | inactive: 0 | inactive: 0 | inactive: 0 | inactive: 0 | inactive: 0 | inactive: 0 | inactive: 0
CCc1cc2c(cc1-c1cnn(CC(=O)N(C)C)c1)C(C)(C)c1[nH]c3cc(C#N)ccc3c1C2=O | inactive: 0 | inactive: 0 | inactive: 0 | inactive: 0 | inactive: 0 | inactive: 0 | inactive: 0 | inactive: 0 | inactive: 0 | inactive: 0 |  |  |  |  |  |  |  |  |  | 
COc1ccc(CNC(=O)Nc2ncc([N+](=O)[O-])s2)cc1 | inactive: 0 | inactive: 0 | inactive: 0 | inactive: 0 | inactive: 0 | inactive: 0 | inactive: 0 | inactive: 0 | inactive: 0 | inactive: 0 |  |  |  |  |  |  |  |  |  | 
O=C(O)c1ccc(Nc2ncc3c(n2)-c2ccc(Cl)cc2C(c2c(F)cccc2F)=NC3)cc1 |  |  |  |  |  |  |  |  |  |  | inactive: 0 | inactive: 0 | inactive: 0 | inactive: 0 | inactive: 0 | inactive: 0 | inactive: 0 | inactive: 0 | inactive: 0 | inactive: 0
Cc1ccc(Nc2nccc(N(C)c3ccc4c(C)n(C)nc4c3)n2)cc1S(N)(=O)=O [Pazopanib] |  |  |  |  |  |  |  |  |  |  | inactive: 0 | inactive: 0 | inactive: 0 | inactive: 0 | inactive: 0 | inactive: 0 | inactive: 0 | inactive: 0 | inactive: 0 | inactive: 0
C=CC(=O)Nc1cc2c(Nc3ccc(F)c(Cl)c3)ncnc2cc1OCCCN1CCOCC1 [Canertinib (dihydrochloride)] | inactive: 0 | inactive: 0 | inactive: 0 | inactive: 0 | inactive: 0 | inactive: 0 | inactive: 0 | inactive: 0 | inactive: 0 | inactive: 0 |  |  |  |  |  |  |  |  |  | 
CCCCCCCCCCCCc1ccc(S(=O)(=O)Nc2nncs2)cc1 |  |  |  |  |  |  |  |  |  |  | inactive: 0 | inactive: 0 | inactive: 0 | inactive: 0 | active: 1 | inactive: 0 | inactive: 0 | inactive: 0 | inactive: 0 | inactive: 0
CCOc1nc(NC(=O)Cc2cc(OC)ccc2OC)cc(N)c1C#N [JNK Inhibitor VIII] |  |  |  |  |  |  |  |  |  |  | inactive: 0 | inactive: 0 | inactive: 0 | inactive: 0 | inactive: 0 | inactive: 0 | inactive: 0 | inactive: 0 | inactive: 0 | inactive: 0
C[C@H]1Oc2cc(cnc2N)-c2c(nn(C)c2C#N)CN(C)C(=O)c2ccc(F)cc21 [Lorlatinib] |  |  |  |  |  |  |  |  |  |  | inactive: 0 | inactive: 0 | inactive: 0 | inactive: 0 | inactive: 0 | inactive: 0 | inactive: 0 | inactive: 0 | inactive: 0 | inactive: 0
O=C1Cc2c([nH]c3ccc(Br)cc23)-c2ccccc2N1 [Kenpaullone] |  |  |  |  |  |  |  |  |  |  | inactive: 0 | inactive: 0 | inactive: 0 | inactive: 0 | inactive: 0 | inactive: 0 | inactive: 0 | inactive: 0 | inactive: 0 | inactive: 0

From the supplement of paper PMC12823440, “Inhibitors supercharge kinase turnover through native proteolytic circuits” (Nature, 2025)
